Data as given in the supplement of paper PMC10849652.
The list shows a part of the results.

Sequences of proteins named here, by UniProt entry; tags and fusion partners are left off. A change or cut given only in a name is not applied to a line headed by its entry.
UniProt Q6UWZ7: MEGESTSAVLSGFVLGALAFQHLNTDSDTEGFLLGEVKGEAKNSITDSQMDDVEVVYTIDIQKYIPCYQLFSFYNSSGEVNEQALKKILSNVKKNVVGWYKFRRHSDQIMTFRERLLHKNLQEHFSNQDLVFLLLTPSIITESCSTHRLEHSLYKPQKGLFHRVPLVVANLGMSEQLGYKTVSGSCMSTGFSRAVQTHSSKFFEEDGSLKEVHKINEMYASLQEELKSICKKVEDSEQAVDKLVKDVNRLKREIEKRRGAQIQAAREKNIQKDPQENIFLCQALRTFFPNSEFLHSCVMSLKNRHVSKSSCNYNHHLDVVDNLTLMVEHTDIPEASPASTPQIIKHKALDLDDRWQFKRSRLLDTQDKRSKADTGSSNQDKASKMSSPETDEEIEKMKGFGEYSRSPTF
UniProt P78363: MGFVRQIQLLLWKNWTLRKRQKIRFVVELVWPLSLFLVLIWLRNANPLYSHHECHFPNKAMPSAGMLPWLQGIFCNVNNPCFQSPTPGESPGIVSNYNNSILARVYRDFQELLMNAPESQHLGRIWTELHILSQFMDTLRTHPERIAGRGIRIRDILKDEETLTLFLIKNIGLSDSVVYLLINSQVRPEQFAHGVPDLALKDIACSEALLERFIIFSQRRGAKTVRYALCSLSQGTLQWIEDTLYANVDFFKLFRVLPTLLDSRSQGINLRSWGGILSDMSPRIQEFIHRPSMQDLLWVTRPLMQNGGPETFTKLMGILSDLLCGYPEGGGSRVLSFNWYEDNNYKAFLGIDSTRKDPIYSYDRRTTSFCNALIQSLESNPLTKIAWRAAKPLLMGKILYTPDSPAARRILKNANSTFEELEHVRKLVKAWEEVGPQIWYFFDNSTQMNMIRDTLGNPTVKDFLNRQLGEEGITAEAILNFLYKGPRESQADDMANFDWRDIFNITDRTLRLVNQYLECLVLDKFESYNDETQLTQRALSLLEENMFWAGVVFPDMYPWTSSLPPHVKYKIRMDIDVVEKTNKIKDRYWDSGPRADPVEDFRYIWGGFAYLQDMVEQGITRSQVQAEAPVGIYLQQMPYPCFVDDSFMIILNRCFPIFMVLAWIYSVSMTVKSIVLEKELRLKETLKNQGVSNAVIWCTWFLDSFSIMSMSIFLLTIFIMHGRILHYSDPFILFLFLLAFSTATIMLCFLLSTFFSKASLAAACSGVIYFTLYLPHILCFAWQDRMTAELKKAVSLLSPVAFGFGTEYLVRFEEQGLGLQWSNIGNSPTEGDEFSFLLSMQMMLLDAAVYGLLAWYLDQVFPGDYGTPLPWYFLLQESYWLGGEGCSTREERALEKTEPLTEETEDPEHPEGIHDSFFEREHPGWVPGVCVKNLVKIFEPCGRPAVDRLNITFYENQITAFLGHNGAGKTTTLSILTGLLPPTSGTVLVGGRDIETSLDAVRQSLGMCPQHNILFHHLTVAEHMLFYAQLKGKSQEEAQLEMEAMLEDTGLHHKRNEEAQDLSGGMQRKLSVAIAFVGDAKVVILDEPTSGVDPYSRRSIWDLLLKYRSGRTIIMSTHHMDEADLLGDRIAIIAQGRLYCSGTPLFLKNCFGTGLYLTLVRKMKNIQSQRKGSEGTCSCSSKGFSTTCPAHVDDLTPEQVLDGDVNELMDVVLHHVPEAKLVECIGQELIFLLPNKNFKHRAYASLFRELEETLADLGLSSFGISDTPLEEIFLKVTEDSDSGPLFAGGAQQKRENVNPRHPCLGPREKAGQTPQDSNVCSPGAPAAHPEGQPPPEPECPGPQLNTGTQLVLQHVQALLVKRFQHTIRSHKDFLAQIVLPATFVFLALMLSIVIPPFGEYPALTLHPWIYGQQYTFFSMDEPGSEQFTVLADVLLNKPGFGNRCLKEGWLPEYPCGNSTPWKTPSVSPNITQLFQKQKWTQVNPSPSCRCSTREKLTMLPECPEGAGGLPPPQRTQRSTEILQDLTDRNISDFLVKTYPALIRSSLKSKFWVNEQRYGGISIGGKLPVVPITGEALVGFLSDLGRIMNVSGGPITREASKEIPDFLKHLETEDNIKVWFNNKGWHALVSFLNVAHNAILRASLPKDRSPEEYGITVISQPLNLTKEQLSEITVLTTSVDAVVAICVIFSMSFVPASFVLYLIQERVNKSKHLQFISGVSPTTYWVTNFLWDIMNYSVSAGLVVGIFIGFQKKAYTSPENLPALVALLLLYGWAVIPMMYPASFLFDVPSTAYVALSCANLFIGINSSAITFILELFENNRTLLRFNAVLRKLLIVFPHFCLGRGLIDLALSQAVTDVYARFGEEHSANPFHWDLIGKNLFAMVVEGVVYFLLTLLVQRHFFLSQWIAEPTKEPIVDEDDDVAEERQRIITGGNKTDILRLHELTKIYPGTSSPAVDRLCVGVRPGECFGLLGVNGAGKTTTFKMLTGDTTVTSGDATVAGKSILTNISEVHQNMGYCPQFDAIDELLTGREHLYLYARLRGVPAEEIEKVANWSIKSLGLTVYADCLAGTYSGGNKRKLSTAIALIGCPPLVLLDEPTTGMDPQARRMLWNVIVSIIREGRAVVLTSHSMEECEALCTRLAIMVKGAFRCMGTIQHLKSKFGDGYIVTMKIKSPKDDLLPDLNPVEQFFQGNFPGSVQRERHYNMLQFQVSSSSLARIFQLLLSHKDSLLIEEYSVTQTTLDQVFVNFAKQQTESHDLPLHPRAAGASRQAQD
UniProt Q13444: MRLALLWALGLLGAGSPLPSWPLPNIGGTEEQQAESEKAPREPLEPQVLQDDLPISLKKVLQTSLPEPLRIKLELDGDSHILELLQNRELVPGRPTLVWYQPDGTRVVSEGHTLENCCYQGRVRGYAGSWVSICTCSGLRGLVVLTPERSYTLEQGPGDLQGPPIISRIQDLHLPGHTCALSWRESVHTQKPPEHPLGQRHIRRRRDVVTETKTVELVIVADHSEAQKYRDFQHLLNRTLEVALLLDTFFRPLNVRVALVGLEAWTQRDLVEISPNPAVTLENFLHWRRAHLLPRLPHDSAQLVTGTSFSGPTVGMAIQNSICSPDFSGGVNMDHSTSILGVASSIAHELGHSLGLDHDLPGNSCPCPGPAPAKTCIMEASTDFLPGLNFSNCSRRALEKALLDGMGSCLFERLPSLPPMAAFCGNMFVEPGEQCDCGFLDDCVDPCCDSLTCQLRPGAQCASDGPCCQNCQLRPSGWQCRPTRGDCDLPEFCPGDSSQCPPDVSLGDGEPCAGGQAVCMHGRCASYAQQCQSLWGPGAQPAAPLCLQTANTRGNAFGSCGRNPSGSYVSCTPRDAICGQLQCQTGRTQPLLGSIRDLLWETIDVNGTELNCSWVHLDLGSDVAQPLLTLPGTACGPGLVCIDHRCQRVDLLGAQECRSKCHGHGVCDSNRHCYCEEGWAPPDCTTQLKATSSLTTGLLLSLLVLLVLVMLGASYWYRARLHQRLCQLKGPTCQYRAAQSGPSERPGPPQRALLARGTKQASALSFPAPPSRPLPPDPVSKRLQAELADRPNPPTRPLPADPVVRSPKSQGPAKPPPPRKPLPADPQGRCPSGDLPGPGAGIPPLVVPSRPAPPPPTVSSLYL
UniProt P01023, whole entry, looked up: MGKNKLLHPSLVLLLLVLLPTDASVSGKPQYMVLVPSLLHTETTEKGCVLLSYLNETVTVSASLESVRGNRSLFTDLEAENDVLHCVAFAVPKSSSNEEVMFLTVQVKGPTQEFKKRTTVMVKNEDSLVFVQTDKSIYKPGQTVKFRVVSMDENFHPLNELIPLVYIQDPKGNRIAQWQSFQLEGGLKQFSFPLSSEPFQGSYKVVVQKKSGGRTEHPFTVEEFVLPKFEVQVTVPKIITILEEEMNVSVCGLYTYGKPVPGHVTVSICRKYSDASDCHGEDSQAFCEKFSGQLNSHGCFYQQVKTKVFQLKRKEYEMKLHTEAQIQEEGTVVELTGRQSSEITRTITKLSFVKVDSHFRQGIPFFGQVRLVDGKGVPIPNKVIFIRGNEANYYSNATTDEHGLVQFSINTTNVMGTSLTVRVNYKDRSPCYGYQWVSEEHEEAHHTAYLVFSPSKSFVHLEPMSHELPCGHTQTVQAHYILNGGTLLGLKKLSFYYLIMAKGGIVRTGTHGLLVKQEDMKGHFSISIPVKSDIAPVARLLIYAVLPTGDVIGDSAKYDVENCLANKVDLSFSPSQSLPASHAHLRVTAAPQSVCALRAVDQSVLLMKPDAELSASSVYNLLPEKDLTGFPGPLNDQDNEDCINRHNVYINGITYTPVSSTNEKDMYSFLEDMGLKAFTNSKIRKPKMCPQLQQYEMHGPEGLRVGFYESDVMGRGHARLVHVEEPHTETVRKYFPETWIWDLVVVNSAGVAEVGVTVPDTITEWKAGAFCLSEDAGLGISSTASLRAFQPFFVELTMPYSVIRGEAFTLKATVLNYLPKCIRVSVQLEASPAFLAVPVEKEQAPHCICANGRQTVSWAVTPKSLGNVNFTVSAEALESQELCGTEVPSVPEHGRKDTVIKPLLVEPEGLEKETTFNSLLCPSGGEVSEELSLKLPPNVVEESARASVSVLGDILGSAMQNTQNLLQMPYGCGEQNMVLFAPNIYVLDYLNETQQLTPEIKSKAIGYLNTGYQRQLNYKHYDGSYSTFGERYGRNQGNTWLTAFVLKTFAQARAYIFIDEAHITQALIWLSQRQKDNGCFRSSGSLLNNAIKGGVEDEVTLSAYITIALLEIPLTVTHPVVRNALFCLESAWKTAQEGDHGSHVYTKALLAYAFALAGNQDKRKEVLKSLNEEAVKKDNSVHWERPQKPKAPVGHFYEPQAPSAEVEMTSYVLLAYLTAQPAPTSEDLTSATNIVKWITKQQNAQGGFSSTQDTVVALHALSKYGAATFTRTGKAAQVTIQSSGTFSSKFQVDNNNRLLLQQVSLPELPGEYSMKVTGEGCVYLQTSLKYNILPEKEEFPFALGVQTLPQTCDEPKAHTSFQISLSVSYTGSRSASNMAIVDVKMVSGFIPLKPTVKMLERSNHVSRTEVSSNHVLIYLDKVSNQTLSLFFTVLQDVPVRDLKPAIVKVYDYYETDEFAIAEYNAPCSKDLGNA
UniProt Q04771: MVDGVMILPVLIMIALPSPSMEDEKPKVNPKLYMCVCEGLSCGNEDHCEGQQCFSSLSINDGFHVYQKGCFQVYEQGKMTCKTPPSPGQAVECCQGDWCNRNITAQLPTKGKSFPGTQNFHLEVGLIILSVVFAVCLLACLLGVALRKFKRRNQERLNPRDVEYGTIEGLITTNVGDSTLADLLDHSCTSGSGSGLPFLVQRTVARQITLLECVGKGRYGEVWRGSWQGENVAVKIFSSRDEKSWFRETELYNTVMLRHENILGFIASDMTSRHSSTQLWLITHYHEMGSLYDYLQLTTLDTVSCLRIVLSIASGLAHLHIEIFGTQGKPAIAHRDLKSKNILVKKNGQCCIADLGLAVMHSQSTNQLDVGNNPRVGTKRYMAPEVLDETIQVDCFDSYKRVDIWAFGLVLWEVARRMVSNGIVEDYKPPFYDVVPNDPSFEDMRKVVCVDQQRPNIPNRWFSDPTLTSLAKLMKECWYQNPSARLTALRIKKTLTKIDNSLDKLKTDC
UniProt Q9BTE6: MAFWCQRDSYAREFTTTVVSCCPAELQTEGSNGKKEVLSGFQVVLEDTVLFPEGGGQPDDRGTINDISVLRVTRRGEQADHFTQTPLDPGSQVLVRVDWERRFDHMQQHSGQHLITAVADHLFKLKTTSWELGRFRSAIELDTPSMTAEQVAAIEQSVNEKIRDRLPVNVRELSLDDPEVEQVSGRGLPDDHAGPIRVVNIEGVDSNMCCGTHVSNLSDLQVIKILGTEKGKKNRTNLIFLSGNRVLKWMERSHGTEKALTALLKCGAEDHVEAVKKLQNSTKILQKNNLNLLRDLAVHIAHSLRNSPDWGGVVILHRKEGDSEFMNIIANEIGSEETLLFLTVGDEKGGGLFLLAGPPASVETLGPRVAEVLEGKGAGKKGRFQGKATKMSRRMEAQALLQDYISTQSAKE
UniProt P28330: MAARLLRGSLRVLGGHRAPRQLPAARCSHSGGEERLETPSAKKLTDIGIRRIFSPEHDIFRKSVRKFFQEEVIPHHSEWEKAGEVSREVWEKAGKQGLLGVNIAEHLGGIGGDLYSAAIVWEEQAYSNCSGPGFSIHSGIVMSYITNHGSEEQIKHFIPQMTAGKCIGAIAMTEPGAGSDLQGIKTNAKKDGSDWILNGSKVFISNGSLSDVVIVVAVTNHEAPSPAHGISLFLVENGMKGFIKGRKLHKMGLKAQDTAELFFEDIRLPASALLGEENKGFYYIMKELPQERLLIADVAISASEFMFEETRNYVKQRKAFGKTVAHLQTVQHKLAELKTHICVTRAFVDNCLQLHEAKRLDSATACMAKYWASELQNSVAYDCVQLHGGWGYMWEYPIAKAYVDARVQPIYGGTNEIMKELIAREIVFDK

Columns and labels:
Assay in all cases: log2 fold change, soluble protein after heating vs DMSO (PISA); higher = thermal stabilisation; K562 cells, 10 uM, 30 min; active = over 0.2 and 3.5 SD of the protein, either way, in both replicates (recomputed)
bafetinib = compound: Cc1ccc(NC(=O)c2ccc(CN3CC[C@H](N(C)C)C3)c(C(F)(F)F)c2)cc1Nc1nccc(-c2cncnc2)n1 [bafetinib]
How it was run: (§1)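 Thermal stability values are relative to control samples and come from duplicates. They are expressed as log2 fold changes. For measurement, K562 cells (2×10^6 cells/mL) received 10 μM compound for 30 min, and aliquots were heated for 3 min over 48°C-58°C, pooled, and extracted at 4°C in PBS with 0.5% NP-40. Soluble protein, the supernatant after 21,000xg for 90 min, was quantified by TMTpro 16plex LC-MS/MS with equalised channel sums.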

[1] = compound: Cc1cccc(CC(=O)N2CCc3c2ccc(-c2cn(C)c4ncnc(N)c24)c3F)n1
How it was run: as §1

dasatinib = compound: Cc1nc(Nc2ncc(C(=O)Nc3c(C)cccc3Cl)s2)cc(N2CCN(CCO)CC2)n1 [dasatinib]
How it was run: as §1

[2] = compound: Cn1cc(-c2ccc3c(c2)CCN3C(=O)Cc2cccc(C(F)(F)F)c2)c2c(N)ncnc21
How it was run: as §1

[3] = compound: Cn1cc(-c2ccc3nnc(C(F)(F)c4ccc5ncccc5c4)n3n2)cn1
How it was run: as §1

tipifarnib = compound: Cn1cncc1[C@@](N)(c1ccc(Cl)cc1)c1ccc2c(c1)c(-c1cccc(Cl)c1)cc(=O)n2C [tipifarnib]
How it was run: as §1

[4] = compound: NC(=O)Nc1cc(-c2cccc(F)c2)sc1C(=O)N[C@H]1CCCNC1
How it was run: as §1

[5] = compound: NC(=O)c1cnc(N[C@@H]2CCCC[C@@H]2N)nc1Nc1cccc(-n2nccn2)c1
How it was run: as §1

[6] = compound: NCC(=O)Nc1ccc(-n2nc(C(F)(F)F)cc2-c2ccc3c(ccc4ccccc43)c2)cc1
How it was run: as §1

entinostat = compound: Nc1ccccc1NC(=O)c1ccc(CNC(=O)OCc2cccnc2)cc1 [entinostat]
How it was run: as §1

vorinostat = compound: O=C(CCCCCCC(=O)Nc1ccccc1)NO [vorinostat]
How it was run: as §1

citarinostat = compound: O=C(CCCCCCNC(=O)c1cnc(N(c2ccccc2)c2ccccc2Cl)nc1)NO [citarinostat]
How it was run: as §1

[7] = compound: O=C1NC(=O)C(c2cnc3ccccn23)=C1c1cn2c3c(cc(F)cc13)CN(C(=O)N1CCCCC1)CC2
How it was run: as §1

[8] = compound: c1cc(OCCN2CCCCC2)cc(-c2n[nH]c3ccc(-c4nnc[nH]4)cc23)c1
How it was run: as §1

mubritinib = compound: FC(F)(F)c1ccc(/C=C/c2nc(COc3ccc(CCCCn4ccnn4)cc3)co2)cc1 [mubritinib]
How it was run: as §1

[9] = compound: NC1(c2ccc(-c3nc4ccn5c(=O)[nH]nc5c4cc3-c3ccccc3)cc2)CCC1
How it was run: as §1

silmitasertib = compound: O=C(O)c1ccc2c(c1)nc(Nc1cccc(Cl)c1)c1ccncc12 [silmitasertib]
How it was run: as §1

nilotinib = compound: Cc1cn(-c2cc(NC(=O)c3ccc(C)c(Nc4nccc(-c5cccnc5)n4)c3)cc(C(F)(F)F)c2)cn1 [nilotinib]
How it was run: as §1

[10] = compound: Cc1nc(Nc2n[nH]c3c2CN(C(=O)N[C@H](CN(C)C)c2ccccc2)C3(C)C)c2sccc2n1
How it was run: as §1

[11] = compound: Cc1ncc(-c2ccnc(Nc3ccc(S(C)(=O)=O)cc3)n2)n1C(C)C
How it was run: as §1

Measured: log2 fold change

ABCA3 (UniProt Q99758)
inactive: bafetinib 0.164 | [1] -0.053 | dasatinib -0.027 | [2] -0.022 | [3] 0.019 | tipifarnib 0.058 | [4] 0.021 | [5] -0.001 | [6] -0.196 | entinostat -0.064 | vorinostat 0.02 | citarinostat 0.021 | [7] 0.134 | [8] 0

ABRAXAS1 (UniProt Q6UWZ7)
inactive: bafetinib -0.2 | [1] -0.075 | dasatinib 0.149 | [2] -0.044 | [3] -0.116 | tipifarnib 0.059 | mubritinib -0.085 | [4] 0.173 | [5] 0.203 | [9] 0.157 | [6] 0.115 | entinostat -0.135 | vorinostat -0.092 | citarinostat -0.112 | silmitasertib 0.05 | [7] 0.016 | [8] -0.186

ABCA4 (UniProt P78363)
inactive: bafetinib -0.025 | [1] -0.149 | nilotinib 0.106 | [10] 0.095 | [11] 0.045 | [2] 0.016 | [3] -0.071 | mubritinib 0.154 | [4] 0.007 | [5] -0.092 | [9] 0.061 | entinostat 0.002 | vorinostat 0.124 | citarinostat 0.013 | silmitasertib -0.082 | [7] -0.041 | [8] 0.157

ADAM15 (UniProt Q13444)
inactive: bafetinib 0.067 | [1] 0.003 | nilotinib -0.11 | [10] -0.043 | dasatinib -0.009 | [11] 0.079 | [3] 0.018 | tipifarnib -0.053 | [4] -0.023 | [5] 0.034 | [6] -0.024 | entinostat 0.085 | vorinostat 0.092 | [7] 0.031
active: [2] -0.355

A2M (UniProt P01023)
inactive: bafetinib -0.095 | [1] -0.012 | nilotinib 0.045 | [10] 0.08 | dasatinib 0.084 | [11] 0.559 | [2] 0.17 | [3] -0.124 | tipifarnib 0.02 | mubritinib -0.429 | [4] -0.082 | [5] -0.042 | [9] 0.096 | [6] -0.019 | entinostat 0.034 | vorinostat 0.167 | citarinostat 0.04 | silmitasertib 0.092 | [7] 0.105 | [8] 0.654

ABCD3 (UniProt P28288)
inactive: bafetinib 0.077 | [1] 0.001 | nilotinib 0.058 | [10] 0.069 | dasatinib -0.129 | [11] -0.005 | [2] 0.042 | [3] 0.008 | tipifarnib 0.024 | mubritinib 0.033 | [4] -0.016 | [5] -0.025 | [9] -0.068 | [6] -0.011 | entinostat -0.045 | vorinostat 0.007 | citarinostat -0.001 | silmitasertib 0.006 | [7] -0.01 | [8] -0.048

A2ML1 (UniProt A8K2U0)
inactive: nilotinib -0.053 | [10] 0.103 | [11] 0.034 | [3] 0.074 | tipifarnib 0.382 | mubritinib -0.174 | [4] -0.615 | [5] 0.43 | [9] 0 | [6] -0.216 | entinostat -0.367 | citarinostat -0.185 | silmitasertib 0.383 | [8] 0.627

ABCF1 (UniProt Q5STZ8)
inactive: bafetinib 0.097 | nilotinib 0.243 | [10] 0.012 | [11] -0.04 | [2] 0.025 | [5] 0.039 | [6] 0

ACVR1 (UniProt Q04771)
inactive: [1] -0.068 | dasatinib 0.041 | [2] 0.029 | tipifarnib -0.006 | mubritinib -0.124 | [4] 0.044 | [5] 0.074 | [9] 0 | [6] 0.089 | entinostat 0.137 | vorinostat -0.255 | citarinostat 0.07 | silmitasertib 0.046 | [7] -0.069 | [8] 0.027

Quoted at random: two entries already listed
A2M (UniProt P01023)
inactive: bafetinib -0.095 | [1] -0.012 | nilotinib 0.045 | [10] 0.08 | dasatinib 0.084 | [11] 0.559 | [2] 0.17 | [3] -0.124 | tipifarnib 0.02 | mubritinib -0.429 | [4] -0.082 | [5] -0.042 | [9] 0.096 | [6] -0.019 | entinostat 0.034 | vorinostat 0.167 | citarinostat 0.04 | silmitasertib 0.092 | [7] 0.105 | [8] 0.654

ABCF1 (UniProt Q5STZ8)
inactive: bafetinib 0.097 | nilotinib 0.243 | [10] 0.012 | [11] -0.04 | [2] 0.025 | [5] 0.039 | [6] 0

(continued)

AARSD1 (UniProt Q9BTE6)
inactive: bafetinib 0.142 | nilotinib 0.029 | [10] -0.078 | dasatinib -0.606 | [11] -0.012 | [2] 0.121 | tipifarnib -0.19 | mubritinib 0.066 | [5] -0.066 | [9] -0.048 | citarinostat 0.144 | silmitasertib 0.137 | [8] 0.066

ABCA2 isoform 3 (UniProt Q9BZC7)
inactive: bafetinib -0.498 | [3] -0.083 | [4] -0.64 | entinostat -0.272 | citarinostat -0.308 | [8] -0.095

ACADL (UniProt P28330)
inactive: [4] 0.074 | entinostat 0.134
